Our source for the binding values is PMC4606454.

Experiment [1] has as its target T1, His-MBP-KYP (Arabidopsis) (UniProt Q8GZB6).
T1 sequence: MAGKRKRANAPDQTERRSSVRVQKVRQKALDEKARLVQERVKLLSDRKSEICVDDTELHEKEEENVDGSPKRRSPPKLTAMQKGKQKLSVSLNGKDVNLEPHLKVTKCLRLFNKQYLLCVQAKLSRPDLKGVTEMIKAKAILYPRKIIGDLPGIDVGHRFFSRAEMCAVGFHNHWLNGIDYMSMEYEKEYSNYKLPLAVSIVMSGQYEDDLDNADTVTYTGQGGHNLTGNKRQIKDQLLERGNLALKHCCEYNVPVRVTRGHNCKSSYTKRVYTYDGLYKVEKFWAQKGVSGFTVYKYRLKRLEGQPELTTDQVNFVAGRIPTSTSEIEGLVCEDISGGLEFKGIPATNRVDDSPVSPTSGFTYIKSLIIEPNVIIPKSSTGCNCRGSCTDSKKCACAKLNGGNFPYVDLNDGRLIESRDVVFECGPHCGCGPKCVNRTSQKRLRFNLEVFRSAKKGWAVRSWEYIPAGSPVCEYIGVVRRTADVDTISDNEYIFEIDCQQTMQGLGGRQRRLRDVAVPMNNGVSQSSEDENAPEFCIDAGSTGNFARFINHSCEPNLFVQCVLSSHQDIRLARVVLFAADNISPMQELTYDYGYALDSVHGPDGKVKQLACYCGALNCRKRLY
In words: pull-down; 2.5 μg His-GST-tagged prey with 2.5 μg His-MBP-tagged bait, amylose resin, room temperature, 50 mM Tris-HCl pH 7.5, 150 mM NaCl, 0.6% Triton X-100; prey detected with anti-GST; both purified.

Experiment [2] deals with T2, MBP-KYP SET domain (truncated KYP) (Arabidopsis) (UniProt Q8GZB6).
T2 sequence: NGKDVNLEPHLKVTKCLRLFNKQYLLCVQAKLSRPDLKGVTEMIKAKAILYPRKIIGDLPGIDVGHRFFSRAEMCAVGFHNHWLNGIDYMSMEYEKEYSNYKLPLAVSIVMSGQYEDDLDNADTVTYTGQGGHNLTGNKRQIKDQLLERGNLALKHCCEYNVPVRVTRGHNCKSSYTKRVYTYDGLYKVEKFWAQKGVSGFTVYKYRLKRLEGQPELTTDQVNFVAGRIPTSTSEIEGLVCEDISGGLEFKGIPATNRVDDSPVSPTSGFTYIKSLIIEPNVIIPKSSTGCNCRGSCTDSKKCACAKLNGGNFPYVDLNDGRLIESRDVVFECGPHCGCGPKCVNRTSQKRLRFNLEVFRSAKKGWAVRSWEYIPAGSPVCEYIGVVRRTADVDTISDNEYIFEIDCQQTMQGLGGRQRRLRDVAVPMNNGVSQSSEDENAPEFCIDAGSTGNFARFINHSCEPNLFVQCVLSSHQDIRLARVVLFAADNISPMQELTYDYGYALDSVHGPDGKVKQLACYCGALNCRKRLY
Described as above.

The target in experiment [3] is T3, CLuc-HA3-KYP (Arabidopsis) (UniProt Q8GZB6).
T3 sequence: T1 sequence
In words: split reporter; luciferase complementation imaging (LCI) in N. benthamiana leaves: Myc-TrAP-nLUC with cLUC-3HA-candidate proteins, 2 days after agroinfiltration, luciferin, EMCCD camera.

Experiment [4] deals with Myc-TrAP-nLuc (not stated (TGMV or CaLCuV TrAP cloned)). In words: co-IP; N. benthamiana leaves co-infiltrated with 35S-Myc-TrAP-nLuc and cLuc-HA-KYP; IP with anti-c-Myc agarose at 4°C, 300 mM NaCl, 0.5% Triton X-100; blots with anti-Myc or anti-HA.

These are yes or no findings as the source states them, for the method shown. Binding calls can cover weak binding; strength is not graded here. Tags and fused reporters may be left off the sequences shown. For part of these data: In cells and extracts the contact can be indirect.

Regarding “His-GST-CaLCuV-TrAP (Cabbage Leaf Curl Virus (CaLCuV))”, the binding result in experiment [1] and in experiment [2] was “binds” throughout.
For the molecule “His-GST-TGMV-TrAP (Tomato Golden Mosaic Virus (TGMV))”, the binding result in experiment [1] and in experiment [2] was “binds” in each case.
For Myc-TrAP-nLuc, the binding result in experiment [3] is on record as “binds”.

B1: CLuc-HA3-KYP (enzyme, UniProt Q8GZB6 1-624)
chain: T1 sequence
As to B1, in experiment [4], the binding entry was “binds”.
